Biological target: T1, bovine α1-AGP (α1-acid glycoprotein) (Bos taurus, UniProt Q3SZR3)
T1 construct: gene ORM1
T1 sequence (Q3SZR3 19-202): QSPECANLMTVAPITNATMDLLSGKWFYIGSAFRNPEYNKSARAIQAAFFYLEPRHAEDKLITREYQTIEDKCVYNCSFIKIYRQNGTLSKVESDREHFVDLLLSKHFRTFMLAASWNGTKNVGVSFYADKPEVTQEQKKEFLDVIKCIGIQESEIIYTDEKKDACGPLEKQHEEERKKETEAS
Experiment: competitive displacement of [EuL^[…]], Eu emission
Format: binding
Settings: pH 7.40, 298 K; probe not completely displaced, emission quenching read-out

Imatinib: 4.8
Structure (SMILES): Cc1ccc(NC(=O)c2ccc(CN3CCN(C)CC3)cc2)cc1Nc1nccc(-c2cccnc2)n1 [imatinib]
